# Data as given in PubChem BioAssay AID1259254 (NCATS, 2017)
# Aim: 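Gene knock-downs that lead to re-replication, shown by excess G2 DNA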 (primary screen)
# Cell system: human HCT116 colorectal cancer cells
# Knock-down reagent: single siRNA against human genes
# Timing: 3 days
# Read-out: 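Nuclei stained with Hoechst and imaged; cell-cycle phase assigned by DNA content; G2 share scaled per plate, non-targeting siRNA 0%, GMNN siRNA 100%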
# Direction: G2 robust z-score and G2 cells, % of GMNN control: higher = more G2 cells, more excess DNA replication
# Hit rule: 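An siRNA counts as active if its G2 robust z-score lies at least 5 MADs above the screen median; here such calls match roughly 38% of GMNN control or more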
# This is one part, drawn at random, of about 59,000 reagents tested. In the full data, about 1,550 (2.6%) are marked active. 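G2 share is only a proxy for re-replication; each gene was hit by three separate siRNAs, and active genes were retested.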 A number with no mark means an inactive call. The numbers tell different reagents against one gene apart. Not all columns of the deposit are shown. The record does not give: the amount of reagent.
gene,reagent,G2 robust z-score,"G2 cells, % of GMNN control"
TIRAP,1,-1.63,-8.5
TIRAP,2,-0.442,-0.145
TIRAP,3,-0.63,-1.47
CEACAM8,1,0.516,6.6
CEACAM8,2,5.42 (active),41.1
CEACAM8,3,-0.452,-0.216
PAGE3,1,3.12,24.9
PAGE3,2,1.1,10.7
PAGE3,3,-0.535,-0.798
LYSMD3,1,-0.0386,2.7
LYSMD3,2,-0.0246,2.79
LYSMD3,3,-0.445,-0.165
ZNF552,1,-0.749,-2.31
ZNF552,2,-0.583,-1.13
ZNF552,3,-0.357,0.456
BPIFC,1,-0.0131,2.88
BPIFC,2,-0.477,-0.391
BPIFC,3,-1.29,-6.13
NKAIN1,1,-0.301,0.85
NKAIN1,2,-0.711,-2.04
NKAIN1,3,0.189,4.3
ZNF254,1,1.36,12.5
ZNF254,2,-0.154,1.88
ZNF254,3,-1.1,-4.78
PSAT1,1,-1.54,-7.87
PSAT1,2,-0.0193,2.83
PSAT1,3,1.16,11.1
MTMR2,1,-0.0685,2.49
MTMR2,2,0.641,7.48
MTMR2,3,-0.791,-2.6
OXCT1,1,0.116,3.78
OXCT1,2,-0.98,-3.93
OXCT1,3,-0.738,-2.23
MCM3AP,1,-0.0251,2.79
MCM3AP,2,0.815,8.7
MCM3AP,3,0.711,7.97
PEX11G,1,1.15,11.1
PEX11G,2,1.66,14.6
PEX11G,3,3.04,24.4
LINC01704,1,0.479,6.34
LINC01704,2,0.643,7.49
LINC01704,3,-0.156,1.87
VPS52,1,1.5,13.5
VPS52,2,0.245,4.69
VPS52,3,-0.466,-0.308
FMO1,1,2.58,21.1
FMO1,2,0.144,3.98
FMO1,3,-0.553,-0.927
CCDC43,1,-0.621,-1.4
CCDC43,2,-0.217,1.44
CCDC43,3,-0.0977,2.28
TNP1,1,0.179,4.22
TNP1,2,-0.103,2.24
TNP1,3,0.815,8.7
MBIP,1,-0.0264,2.78
MBIP,2,1.63,14.5
MBIP,3,-0.473,-0.361
HNF4G,1,-0.625,-1.43
HNF4G,2,4.24,32.8
HNF4G,3,1.42,13
NDST2,1,6.87 (active),51.3
NDST2,2,0.309,5.14
NDST2,3,-0.453,-0.221
COG5,1,4.78,36.6
COG5,2,-0.576,-1.09
COG5,3,2.03,17.3
GAREM2,1,-0.0128,2.88
GAREM2,2,-0.308,0.797
GAREM2,3,0.802,8.61

Entries above called active (2):
gene,reagent,G2 robust z-score,"G2 cells, % of GMNN control"
CEACAM8,2,5.42 (active),41.1
NDST2,1,6.87 (active),51.3
